## Cleaved PARP after 72 h of treatment

From a melanoma drug combination screen (doi:10.1371/journal.pone.0140310); values rounded.

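The test systems are human melanoma cell lines, treated with two drugs together for 72 h and then stained and imaged. Each value is the cleaved-PARP-positive fraction of nuclei relative to DMSO-treated wells, in %, so that 100 equals the control and higher values mean more apoptosis. Concentrations were fixed for each drug; these are the higher of two levels. These are primary screening values without error estimates. Basal and induced levels differ widely between cell lines.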 Only some of the drugs and lines screened are listed, without regard to their results. A dash means that no value is listed here.

Drug key:
KU-0063794, 0.1 µM: COc1ccc(-c2ccc3c(N4CCOCC4)nc(N4C[C@@H](C)O[C@@H](C)C4)nc3n2)cc1CO
lestaurtinib, 0.02 µM: C[C@]12O[C@H](C[C@]1(O)CO)n1c3ccccc3c3c4c(c5c6ccccc6n2c5c31)CNC4=O
erlotinib, 4 µM: C#Cc1cccc(Nc2ncnc3cc(OCCOC)c(OCCOC)cc23)c1
PLX4720, 0.4 µM: CCCS(=O)(=O)Nc1ccc(F)c(C(=O)c2c[nH]c3ncc(Cl)cc23)c1F
ruxolitinib, 5 µM: N#CC[C@H](C1CCCC1)n1cc(-c2ncnc3[nH]ccc23)cn1
NVP-TAE684, 0.4 µM: COc1cc(N2CCC(N3CCN(C)CC3)CC2)ccc1Nc1ncc(Cl)c(Nc2ccccc2S(=O)(=O)C(C)C)n1
MK-2206, 2 µM: NC1(c2ccc(-c3nc4ccn5c(=O)[nH]nc5c4cc3-c3ccccc3)cc2)CCC1
vismodegib, 5 µM: CS(=O)(=O)c1ccc(C(=O)Nc2ccc(Cl)c(-c3ccccn3)c2)c(Cl)c1
CP-690550, 5 µM: C[C@@H]1CCN(C(=O)CC#N)C[C@@H]1N(C)c1ncnc2[nH]ccc12
veliparib, 7 µM: C[C@]1(c2nc3c(C(N)=O)cccc3[nH]2)CCCN1

| Cell line | NVP-TAE684 + veliparib | erlotinib + PLX4720 | lestaurtinib + MK-2206 | NVP-TAE684 + vismodegib | CP-690550 + NVP-TAE684 | KU-0063794 + CP-690550 | NVP-TAE684 + PLX4720 | vismodegib + ruxolitinib |
|---|---|---|---|---|---|---|---|---|
| UACC-257 | 35.9 | 79.1 | 98.4 | 45.6 | 26.2 | 37.7 | 66.4 | 111 |
| MeWo | 65.7 | 109 | 255 | 155 | 68.4 | 58.5 | 74.2 | 278 |
| SK-MEL-2 | 156 | 108 | 163 | 162 | 192 | 142 | 172 | 81.0 |
| LOX IMVI | 148 | 134 | 519 | 375 | 104 | 59.8 | 325 | 104 |
| COLO 829 | 82.7 | 179 | 246 | 85.5 | 123 | 106 | 197 | 84.5 |
| G-361 | 32.3 | 191 | 158 | 115 | 49.3 | 97.5 | 372 | 283 |
| A101D | 65.4 | 101 | 91.5 | 226 | 213 | 44.3 | 198 | 177 |
| RVH-421 | 333 | 142 | 269 | 137 | 99.8 | 101 | 95.4 | 41.2 |
| WM3619 | 89.9 | 114 | 105 | 76.4 | 143 | 339 | 100 | 93.1 |
| MEL-HO | 142 | 97.2 | 5410 | 80.8 | 24.5 | 94.1 | 207 | 107 |
| COLO 792 | 112 | 175 | 550 | 61.3 | 88.0 | 192 | 67.4 | 128 |
| IST-MEL1 | 146 | 99.3 | 262 | 118 | 87.0 | 26.0 | 94.7 | 125 |
| SK-MEL-30 | 59.5 | 195 | 293 | 103 | 99.6 | 77.0 | 69.3 | 47.5 |
| WM451Lu | 31.8 | 122 | 211 | 79.6 | 100 | 136 | 598 | 73.7 |
| MZ2-MEL | 93.6 | 69.6 | 203 | 71.5 | 124 | 67.2 | 165 | 141 |
| UACC-62 | 141 | 317 | 172 | 227 | 207 | 160 | 405 | 56.4 |
| A2058 | 398 | 146 | 174 | 291 | 253 | 114 | 130 | 145 |
| WM1745 | 189 | 149 | 133 | - | 195 | 116 | - | 110 |
| WM115 | 389 | 94.5 | 239 | 197 | 214 | 79.8 | 201 | 178 |
| COLO 800 | 100 | 234 | 229 | 79.1 | 88.5 | 306 | 356 | 98.2 |
| 501mel | 236 | - | - | 170 | 173 | 147 | 39.8 | - |
| SK-MEL-5 | 152 | 517 | 109 | 85.5 | 46.0 | 314 | 96.6 | 154 |
| WM1716 | 56.6 | 95.3 | 147 | 144 | 27.5 | 233 | 215 | 96.9 |
| IPC-298 | 65.1 | 207 | 226 | 118 | 60.3 | 36.4 | 112 | 238 |
| LB2518-MEL | 204 | 45.0 | 125 | 63.8 | 67.3 | 72.0 | 117 | 138 |
| C32 | 132 | 112 | 46.8 | 73.7 | 118 | 96.9 | 107 | 68.5 |
| SK-MEL-28 | 261 | 108 | 45.9 | 219 | 101 | 99.6 | 63.3 | 44.4 |
| RPMI-7951 | 82.4 | 166 | 146 | 36.2 | 105 | 85.9 | 84.2 | 26.0 |
| WM3526 | 74.7 | 368 | 304 | 121 | 72.1 | 71.1 | 388 | 174 |
| A375 | 505 | 118 | 76.1 | 117 | 79.2 | 180 | 158 | 39.3 |

The last 2 entries again:

Cell line	NVP-TAE684 + veliparib	erlotinib + PLX4720	lestaurtinib + MK-2206	NVP-TAE684 + vismodegib	CP-690550 + NVP-TAE684	KU-0063794 + CP-690550	NVP-TAE684 + PLX4720	vismodegib + ruxolitinib
WM3526	74.7	368	304	121	72.1	71.1	388	174
A375	505	118	76.1	117	79.2	180	158	39.3